Results on one substance are retold here after publication PMC10409762.

Chains of the proteins cited; added tags and fusions are not shown.
UniProt P37238: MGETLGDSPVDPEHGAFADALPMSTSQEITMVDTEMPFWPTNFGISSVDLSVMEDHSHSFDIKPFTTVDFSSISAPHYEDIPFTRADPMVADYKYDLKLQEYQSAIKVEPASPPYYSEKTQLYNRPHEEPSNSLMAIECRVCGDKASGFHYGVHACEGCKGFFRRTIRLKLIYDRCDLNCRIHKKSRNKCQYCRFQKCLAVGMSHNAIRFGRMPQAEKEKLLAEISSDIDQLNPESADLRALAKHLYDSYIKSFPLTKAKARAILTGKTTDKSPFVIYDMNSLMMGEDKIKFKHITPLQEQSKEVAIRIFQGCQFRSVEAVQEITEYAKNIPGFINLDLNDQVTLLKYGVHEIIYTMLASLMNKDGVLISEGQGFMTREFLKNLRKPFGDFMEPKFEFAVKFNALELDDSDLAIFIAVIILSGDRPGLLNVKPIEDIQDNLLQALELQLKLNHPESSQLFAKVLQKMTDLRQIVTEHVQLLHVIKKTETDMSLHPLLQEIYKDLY
UniProt Q04207: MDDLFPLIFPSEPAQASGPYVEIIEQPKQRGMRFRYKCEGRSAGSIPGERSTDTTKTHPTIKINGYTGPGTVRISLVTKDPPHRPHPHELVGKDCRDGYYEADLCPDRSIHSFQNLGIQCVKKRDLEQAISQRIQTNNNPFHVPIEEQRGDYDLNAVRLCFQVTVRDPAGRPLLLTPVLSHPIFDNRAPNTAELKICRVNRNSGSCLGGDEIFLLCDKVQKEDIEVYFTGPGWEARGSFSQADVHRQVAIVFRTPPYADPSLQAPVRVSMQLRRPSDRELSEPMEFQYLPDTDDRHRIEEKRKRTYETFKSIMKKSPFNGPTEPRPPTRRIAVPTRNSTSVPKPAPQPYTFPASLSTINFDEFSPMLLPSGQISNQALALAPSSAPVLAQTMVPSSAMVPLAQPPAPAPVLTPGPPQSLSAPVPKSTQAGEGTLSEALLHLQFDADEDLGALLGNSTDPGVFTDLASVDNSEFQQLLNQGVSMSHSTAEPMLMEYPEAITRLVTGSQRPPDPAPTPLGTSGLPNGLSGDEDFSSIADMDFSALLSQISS

No constants are given. Whether binding was seen depends on the method and setting. In cells and extracts the contact can be indirect. Some binding calls cover weakened binding; strength is not graded here.

In this assay the target is PPARγ (mouse) (UniProt P37238). The experiment in a line: co-IP; cells co-transfected with PPARγ and p65, lysed in NP-40 buffer; supernatants incubated overnight with Protein A + G Agarose coupled to the indicated antibody, washed three times, immunoblot. For orientation: In western blotting, separated proteins are transferred to a membrane and probed.

For NF-κB (p65) (from UniProt Q04207 1-549), the binding result is “binds”.
